Measured values from PMC9631063, “Schisandrin B Attenuates Diabetic Cardiomyopathy by Targeting MyD88 and Inhibiting MyD88‐Dependent Inflammation” (Advanced Science, 2022).
No constants are given. Whether binding was seen depends on the method and setting. Binding seen in cells or lysates may run through a third protein. Binding calls can cover weak binding; strength is not graded here.

Legend:
[1] = molecular target: T1, Toll‐like receptor 4 (rat, endogenous) (rat (endogenous in H9C2 and rat primary cardiomyocytes)) (UniProt Q9QX05); experiment: co-IP; lysates of rat primary cardiomyocytes (control, HG 30 min, with or without 10 uM Sch B pretreatment 1 h); MD2/TLR4, TLR4/TRIF and TLR4/MyD88 complexes; protein G-Sepharose
T1 sequence: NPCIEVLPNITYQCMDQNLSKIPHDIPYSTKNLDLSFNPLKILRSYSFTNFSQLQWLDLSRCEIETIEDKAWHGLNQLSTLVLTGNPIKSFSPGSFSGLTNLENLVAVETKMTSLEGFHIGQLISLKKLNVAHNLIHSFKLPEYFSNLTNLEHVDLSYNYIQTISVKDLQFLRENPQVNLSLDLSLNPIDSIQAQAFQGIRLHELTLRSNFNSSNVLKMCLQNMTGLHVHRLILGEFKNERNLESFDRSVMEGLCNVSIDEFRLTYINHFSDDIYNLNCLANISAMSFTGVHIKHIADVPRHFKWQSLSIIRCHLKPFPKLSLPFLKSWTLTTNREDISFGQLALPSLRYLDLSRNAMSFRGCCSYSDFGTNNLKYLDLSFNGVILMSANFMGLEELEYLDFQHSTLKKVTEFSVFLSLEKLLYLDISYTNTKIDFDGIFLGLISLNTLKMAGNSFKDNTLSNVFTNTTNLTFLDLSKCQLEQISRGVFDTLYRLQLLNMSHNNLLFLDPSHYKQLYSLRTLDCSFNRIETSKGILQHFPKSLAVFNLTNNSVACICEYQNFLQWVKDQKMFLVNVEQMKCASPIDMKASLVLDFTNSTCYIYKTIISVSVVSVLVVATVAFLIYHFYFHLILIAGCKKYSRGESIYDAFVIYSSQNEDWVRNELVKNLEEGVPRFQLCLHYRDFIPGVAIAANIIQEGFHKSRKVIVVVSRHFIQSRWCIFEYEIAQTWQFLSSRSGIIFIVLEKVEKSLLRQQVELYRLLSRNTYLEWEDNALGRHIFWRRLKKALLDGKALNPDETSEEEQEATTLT

[2] = molecular target: T1, Toll‐like receptor 4 (rat, endogenous) (rat (endogenous in H9C2 and rat primary cardiomyocytes)); experiment: co-IP; lysates of H9C2 cells (control, HG 33 mM glucose 30 min, with or without 10 uM Sch B pretreatment 1 h); TLR4 immunoprecipitated and TRIF, MyD88 blotted; MD2 immunoprecipitated and TLR4 blotted; TLR2-MyD88 co-IP (Figure S5); protein G-Sepharose
[3] = molecular target: myeloid differentiation factor 2 (rat, endogenous) (rat (endogenous in H9C2 and rat primary cardiomyocytes)); experiment: co-IP; lysates of rat primary cardiomyocytes (control, HG 30 min, with or without 10 uM Sch B pretreatment 1 h); MD2/TLR4, TLR4/TRIF and TLR4/MyD88 complexes; protein G-Sepharose
[4] = molecular target: myeloid differentiation factor 2 (rat, endogenous) (rat (endogenous in H9C2 and rat primary cardiomyocytes)); experiment: co-IP; lysates of H9C2 cells (control, HG 33 mM glucose 30 min, with or without 10 uM Sch B pretreatment 1 h); TLR4 immunoprecipitated and TRIF, MyD88 blotted; MD2 immunoprecipitated and TLR4 blotted; TLR2-MyD88 co-IP (Figure S5); protein G-Sepharose

“TIR‐domain‐containing adapter‐inducing interferon‐β (rat, endogenous)” was tested. Which binding [1] did it give?
The binding was “binds”.

What about the binding [2] of the same molecule?
The binding was “binds”.

B1: Toll‐like receptor 4 (rat, endogenous) (receptor, UniProt Q9QX05 26-835)
chain: NPCIEVLPNITYQCMDQNLSKIPHDIPYSTKNLDLSFNPLKILRSYSFTNFSQLQWLDLSRCEIETIEDKAWHGLNQLSTLVLTGNPIKSFSPGSFSGLTNLENLVAVETKMTSLEGFHIGQLISLKKLNVAHNLIHSFKLPEYFSNLTNLEHVDLSYNYIQTISVKDLQFLRENPQVNLSLDLSLNPIDSIQAQAFQGIRLHELTLRSNFNSSNVLKMCLQNMTGLHVHRLILGEFKNERNLESFDRSVMEGLCNVSIDEFRLTYINHFSDDIYNLNCLANISAMSFTGVHIKHIADVPRHFKWQSLSIIRCHLKPFPKLSLPFLKSWTLTTNREDISFGQLALPSLRYLDLSRNAMSFRGCCSYSDFGTNNLKYLDLSFNGVILMSANFMGLEELEYLDFQHSTLKKVTEFSVFLSLEKLLYLDISYTNTKIDFDGIFLGLISLNTLKMAGNSFKDNTLSNVFTNTTNLTFLDLSKCQLEQISRGVFDTLYRLQLLNMSHNNLLFLDPSHYKQLYSLRTLDCSFNRIETSKGILQHFPKSLAVFNLTNNSVACICEYQNFLQWVKDQKMFLVNVEQMKCASPIDMKASLVLDFTNSTCYIYKTIISVSVVSVLVVATVAFLIYHFYFHLILIAGCKKYSRGESIYDAFVIYSSQNEDWVRNELVKNLEEGVPRFQLCLHYRDFIPGVAIAANIIQEGFHKSRKVIVVVSRHFIQSRWCIFEYEIAQTWQFLSSRSGIIFIVLEKVEKSLLRQQVELYRLLSRNTYLEWEDNALGRHIFWRRLKKALLDGKALNPDETSEEEQEATTLT
How did the binding [3] turn out when B1 was run?
The binding was “binds”.

And the binding [4]?
The binding was “binds”.
